Test [1] addresses CENP-A/Cid (endogenous) (Drosophila melanogaster (endogenous in S2)) (UniProt Q9V6Q2). The test can be described thus: co-IP; SEC fraction B13 (FACT-CAL1 peak) of S2 nuclear extract; IP with antibodies against CENP-A or CAL1, western blot.
The target is the same in test [2]. The test can be described thus: SEC; Superose 6 (100 ml) of nuclear extract from S2 cells stably expressing SF-CG2051; 30 mM Tris/HCl pH 8, 200 mM NaCl, 2 mM EDTA, 10% glycerol; fractions analysed by western blot. (SEC sorts molecules by how far they enter the pores of the column.)
The target of test [3] is Flag-tagged Caf1 (Drosophila melanogaster) (UniProt Q24572). The test can be described thus: co-IP; extracts of Sf9 cells co-infected with baculoviruses; IP with α-Flag resin, immunoblotting with α-Flag and α-V5 (α-Caf1 for the endogenous Sf9 protein); control IPs from cells without the Flag-tagged protein. For orientation: A western blot detects proteins with antibodies after separation by electrophoresis.

Sequences of proteins named here, by UniProt entry; tags and fusion partners are left off.
UniProt Q9V6Q2: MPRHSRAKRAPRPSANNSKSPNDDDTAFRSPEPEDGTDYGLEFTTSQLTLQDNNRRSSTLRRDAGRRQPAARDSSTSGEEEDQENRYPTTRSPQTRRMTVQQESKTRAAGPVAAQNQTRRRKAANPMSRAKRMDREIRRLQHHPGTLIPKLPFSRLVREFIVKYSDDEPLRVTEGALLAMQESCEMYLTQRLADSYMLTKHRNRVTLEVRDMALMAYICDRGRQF
UniProt Q24572: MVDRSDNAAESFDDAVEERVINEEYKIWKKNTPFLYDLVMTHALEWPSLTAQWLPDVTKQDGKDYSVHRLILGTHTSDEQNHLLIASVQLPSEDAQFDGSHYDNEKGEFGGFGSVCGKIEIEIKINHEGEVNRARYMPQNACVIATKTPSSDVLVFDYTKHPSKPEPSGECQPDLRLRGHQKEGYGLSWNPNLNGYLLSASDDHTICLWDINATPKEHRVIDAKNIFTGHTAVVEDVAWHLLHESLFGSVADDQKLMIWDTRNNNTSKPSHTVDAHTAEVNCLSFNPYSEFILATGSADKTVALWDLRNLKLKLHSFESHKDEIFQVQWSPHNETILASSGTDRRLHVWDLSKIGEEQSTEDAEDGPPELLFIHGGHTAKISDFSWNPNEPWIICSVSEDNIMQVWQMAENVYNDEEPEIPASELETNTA
UniProt Q8IRG6: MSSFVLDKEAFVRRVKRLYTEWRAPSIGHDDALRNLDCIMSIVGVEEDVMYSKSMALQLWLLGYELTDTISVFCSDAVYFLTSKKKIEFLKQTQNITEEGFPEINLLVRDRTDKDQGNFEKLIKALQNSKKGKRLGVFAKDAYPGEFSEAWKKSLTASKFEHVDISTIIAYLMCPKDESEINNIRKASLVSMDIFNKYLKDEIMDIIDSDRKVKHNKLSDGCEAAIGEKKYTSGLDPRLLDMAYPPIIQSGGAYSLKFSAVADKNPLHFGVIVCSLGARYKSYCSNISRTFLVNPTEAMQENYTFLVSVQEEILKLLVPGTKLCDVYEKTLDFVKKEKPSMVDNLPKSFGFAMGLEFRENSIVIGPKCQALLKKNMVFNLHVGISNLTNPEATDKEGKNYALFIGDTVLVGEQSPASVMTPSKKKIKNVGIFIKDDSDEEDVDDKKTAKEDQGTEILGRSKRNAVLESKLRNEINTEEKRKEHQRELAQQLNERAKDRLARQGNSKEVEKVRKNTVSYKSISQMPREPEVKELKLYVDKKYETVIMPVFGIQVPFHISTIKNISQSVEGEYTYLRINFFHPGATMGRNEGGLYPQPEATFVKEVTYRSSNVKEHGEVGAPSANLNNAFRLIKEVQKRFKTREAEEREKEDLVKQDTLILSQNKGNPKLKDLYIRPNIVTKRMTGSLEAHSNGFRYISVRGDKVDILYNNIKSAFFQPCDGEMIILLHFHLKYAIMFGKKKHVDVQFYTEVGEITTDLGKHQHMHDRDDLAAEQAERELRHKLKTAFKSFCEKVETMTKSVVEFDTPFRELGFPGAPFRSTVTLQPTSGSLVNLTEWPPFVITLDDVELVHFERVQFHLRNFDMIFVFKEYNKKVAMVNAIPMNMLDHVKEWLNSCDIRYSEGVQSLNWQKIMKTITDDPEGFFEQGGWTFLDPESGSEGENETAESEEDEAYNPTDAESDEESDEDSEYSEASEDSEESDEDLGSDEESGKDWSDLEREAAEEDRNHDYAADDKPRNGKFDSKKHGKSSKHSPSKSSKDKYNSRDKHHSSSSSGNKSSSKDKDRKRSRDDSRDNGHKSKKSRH

Test [4] addresses V5-tagged CENP-A, full length (Drosophila melanogaster) (UniProt Q9V6Q2). The test can be described thus: co-IP; extracts of Sf9 cells co-infected with baculoviruses; IP with α-V5 antibodies, immunoblotting.

No constants are given. Whether binding was seen depends on the method and setting. For some assays here: In cells and extracts the contact can be indirect. Some binding calls cover weakened binding; strength is not graded here. For some assays here: Where a sequence is shown, tags or fusion partners need not be part of it.

Turning to “Caf1 (Rbap46/48), endogenous (from UniProt Q24572 1-430)”, in test [1], the binding entry was “binds”. Turning to “FACT subunit Dre4, endogenous (from UniProt Q8IRG6 1-1083)”, the binding entry in test [1] and in test [2] was “binds” throughout. On to “V5-tagged CENP-A, full length (from UniProt Q9V6Q2 1-225)”, for which the binding result in test [3] is given as “binds”. For “untagged FACT subunit Dre4 (Sf9) (from UniProt Q8IRG6 1-1083)”, the binding result in test [4] is “binds”.

B1: FACT subunit Ssrp, endogenous (protein, UniProt Q05344 1-723)
chain: MTDSLEYNDINAEVRGVLCSGRLKMTEQNIIFKNTKTGKVEQISAEDIDLINSQKFVGTWGLRVFTKGGVLHRFTGFRDSEHEKLGKFIKAAYSQEMVEKEMCVKGWNWGTARFMGSVLSFDKESKTIFEVPLSHVSQCVTGKNEVTLEFHQNDDAPVGLLEMRFHIPAVESAEEDPVDKFHQNVMSKASVISASGESIAIFREIQILTPRGRYDIKIFSTFFQLHGKTFDYKIPMDSVLRLFMLPHKDSRQMFFVLSLDPPIKQGQTRYHYLVLLFAPDEETTIELPFSEAELRDKYEGKLEKEISGPVYEVMGKVMKVLIGRKITGPGNFIGHSGTAAVGCSFKAAAGYLYPLERGFIYIHKPPLHIRFEEISSVNFARSGGSTRSFDFEVTLKNGTVHIFSSIEKEEYAKLFDYITQKKLHVSNMGKDKSGYKDVDFGDSDNENEPDAYLARLKAEAREKEEDDDDGDSDEESTDEDFKPNENESDVAEEYDSNVESDSDDDSDASGGGGDSDGAKKKKEKKSEKKEKKEKKHKEKERTKKPSKKKKDSGKPKRATTAFMLWLNDTRESIKRENPGIKVTEIAKKGGEMWKELKDKSKWEDAAAKDKQRYHDEMRNYKPEAGGDSDNEKGGKSSKKRKTEPSPSKKANTSGSGFKSKEYISDDDSTSSDDEKDNEPAKKKSKPPSDGDAKKKKAKSESEPEESEEDSNASDEDEEDEASD
In the case of B1, the binding result in test [1] and in test [2] was “binds” each time.

B2: untagged FACT subunit Ssrp (Sf9) (protein, UniProt Q05344 1-723)
chain: MTDSLEYNDINAEVRGVLCSGRLKMTEQNIIFKNTKTGKVEQISAEDIDLINSQKFVGTWGLRVFTKGGVLHRFTGFRDSEHEKLGKFIKAAYSQEMVEKEMCVKGWNWGTARFMGSVLSFDKESKTIFEVPLSHVSQCVTGKNEVTLEFHQNDDAPVGLLEMRFHIPAVESAEEDPVDKFHQNVMSKASVISASGESIAIFREIQILTPRGRYDIKIFSTFFQLHGKTFDYKIPMDSVLRLFMLPHKDSRQMFFVLSLDPPIKQGQTRYHYLVLLFAPDEETTIELPFSEAELRDKYEGKLEKEISGPVYEVMGKVMKVLIGRKITGPGNFIGHSGTAAVGCSFKAAAGYLYPLERGFIYIHKPPLHIRFEEISSVNFARSGGSTRSFDFEVTLKNGTVHIFSSIEKEEYAKLFDYITQKKLHVSNMGKDKSGYKDVDFGDSDNENEPDAYLARLKAEAREKEEDDDDGDSDEESTDEDFKPNENESDVAEEYDSNVESDSDDDSDASGGGGDSDGAKKKKEKKSEKKEKKEKKHKEKERTKKPSKKKKDSGKPKRATTAFMLWLNDTRESIKRENPGIKVTEIAKKGGEMWKELKDKSKWEDAAAKDKQRYHDEMRNYKPEAGGDSDNEKGGKSSKKRKTEPSPSKKANTSGSGFKSKEYISDDDSTSSDDEKDNEPAKKKSKPPSDGDAKKKKAKSESEPEESEEDSNASDEDEEDEASD
As for B2, in test [4], the binding result was “binds”.

(Values after PMC4797270.)
